Data source: PubChem BioAssay AID1259424 (University of Nebraska Medical Center, 2018)

Test: 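Rank knockdowns across the genome by resemblance to the KSR1 depletion profile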 (primary screen)
Cell system: human HCT116 colon cancer cells
Knock-down reagent: siRNA pool against human genes, 50 nM
Detection: 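Log2 levels of six mRNAs (branched-DNA multiplex), adjusted by two reference genes and the non-targeting median, then scored against the average KSR1 knockdown pattern as Pearson r and euclidean distance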
Direction: mean correlation with KSR1 profile and KSR1 correlation: higher = expression change more like KSR1 knockdown; mean distance from KSR1 profile: higher = expression change less like KSR1 knockdown
The whole screen tested about 14,000 reagents; this is a part drawn at random. 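Higher correlation or smaller distance means closer resemblance to KSR1 loss; control wells, including KSR1 knockdowns, recur on many plates.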 No sequences are given here. Not stated in the record: the time to read-out.

gene symbol | PubChem SID | mean correlation with KSR1 profile | mean distance from KSR1 profile | KSR1 correlation, replicate 1 | KSR1 correlation, replicate 2 | KSR1 correlation, replicate 3
POLR3B (RNA polymerase III subunit B) | SID364000766 | -0.36 | 4 | -0.144 | -0.293 | -0.468
RAD23B (RAD23 nucleotide excision repair protein B) | SID363994030 | 0.181 | 2.86 | -0.0578 | 0.286 | 0.15
PIGA (phosphatidylinositol glycan anchor biosynthesis class A) | SID363993809 | 0.202 | 1.5 | 0.183 | 0.224 | 0.211
CFC1 (cryptic, EGF-CFC family member 1) | SID364004041 | 0.423 | 1.5 | 0.405 | 0.427 | 0.288
TUFT1 (tuftelin 1) | SID364001491 | -0.217 | 3.66 | 0.04 | -0.51 | -0.07
MTARC1 (mitochondrial amidoxime reducing component 1) | SID364002521 | -0.539 | 6.06 | 0.37 | 0.323 | -0.38
TNIP1 (TNFAIP3 interacting protein 1) | SID363996905 | 0.584 | 3.04 | 0.684 | 0.626 | 0.328
FOXD2 (forkhead box D2) | SID363995455 | 0.298 | 2.6 | 0.269 | 0.338 | 0.451
TXLNG (taxilin gamma) | SID364001004 | -0.462 | 1.89 | -0.606 | -0.592 | -0.327
AZU1 (azurocidin 1) | SID363992922 | -0.206 | 3.69 | -0.13 | -0.191 | -0.395
TRAK1 (trafficking kinesin protein 1) | SID363999230 | -0.0555 | 3.73 | 0.0169 | -0.201 | 0.0596
PCDHGC3 (protocadherin gamma subfamily C, 3) | SID363993757 | 0.164 | 1.67 | 0.032 | 0.181 | -0.175
HSF2BP (heat shock transcription factor 2 binding protein) | SID363997762 | -0.318 | 2.67 | -0.263 | -0.43 | -0.283
COL4A4 (collagen type IV alpha 4 chain) | SID363991429 | 0.242 | 1.36 | 0.259 | 0.279 | 0.0963
SCNN1A (sodium channel epithelial 1 subunit alpha) | SID363992335 | -0.698 | 2.65 | -0.58 | -0.727 | -0.484
SQOR (sulfide quinone oxidoreductase) | SID364002086 | -0.194 | 1.46 | -0.626 | 0.0674 | 0.164
TMEM243 (transmembrane protein 243) | SID364002788 | 0.702 | 2.63 | 0.543 | 0.497 | 0.407
GPR17 (G protein-coupled receptor 17) | SID363996208 | 0.743 | 1.87 | 0.683 | 0.754 | 0.806
CDKL5 (cyclin dependent kinase like 5) | SID363994297 | -0.182 | 2.86 | -0.538 | -0.441 | 0.0778
NMT1 (N-myristoyltransferase 1) | SID364001995 | 0.0368 | 1.35 | 0.339 | -0.394 | 0.308
ROPN1 (rhophilin associated tail protein 1) | SID364000373 | 0.43 | 2.35 | 0.436 | 0.475 | 0.433
GCNT4 (glucosaminyl (N-acetyl) transferase 4) | SID364000220 | 0.123 | 2.04 | 0.16 | 0.0295 | 0.111
ZNF592 (zinc finger protein 592) | SID364005528 | -0.543 | 2.85 | -0.56 | -0.371 | -0.456
COQ6 (coenzyme Q6, monooxygenase) | SID364004952 | 0.0579 | 1.74 | 0.128 | 0.0493 | -0.0356
EMX2 (empty spiracles homeobox 2) | SID363995108 | -0.381 | 3.06 | -0.267 | -0.288 | -0.482
CBLC (Cbl proto-oncogene C) | SID363998064 | -0.358 | 2.61 | -0.491 | -0.453 | -0.154
MUC7 (mucin 7, secreted) | SID364004704 | -0.13 | 2.97 | 0.102 | -0.0472 | -0.208
PPP1R3A (protein phosphatase 1 regulatory subunit 3A) | SID363993870 | -0.727 | 1.62 | -0.768 | -0.604 | -0.674
NRSN2 (neurensin 2) | SID364003187 | 0.00277 | 1.97 | 0.0235 | -0.281 | -0.281
KLHL15 (kelch like family member 15) | SID364005128 | 0.416 | 2.04 | 0.146 | 0.471 | 0.327
RIMS2 (regulating synaptic membrane exocytosis 2) | SID363999027 | 0.35 | 2.4 | 0.105 | 0.411 | 0.549
CCDC8 (coiled-coil domain containing 8 subunit of 3M complex) | SID364003759 | 0.536 | 1.91 | 0.336 | 0.447 | 0.561
SLC2A1 | SID363997313 | -0.543 | 1.6 | -0.499 | -0.616 | -0.604
ATP1B3 (ATPase Na+/K+ transporting subunit beta 3) | SID363992902 | 0.257 | 2.72 | 0.389 | 0.195 | -0.226

6 consecutive records already listed, for reference:
gene symbol | PubChem SID | mean correlation with KSR1 profile | mean distance from KSR1 profile | KSR1 correlation, replicate 1 | KSR1 correlation, replicate 2 | KSR1 correlation, replicate 3
POLR3B (RNA polymerase III subunit B) | SID364000766 | -0.36 | 4 | -0.144 | -0.293 | -0.468
RAD23B (RAD23 nucleotide excision repair protein B) | SID363994030 | 0.181 | 2.86 | -0.0578 | 0.286 | 0.15
PIGA (phosphatidylinositol glycan anchor biosynthesis class A) | SID363993809 | 0.202 | 1.5 | 0.183 | 0.224 | 0.211
CFC1 (cryptic, EGF-CFC family member 1) | SID364004041 | 0.423 | 1.5 | 0.405 | 0.427 | 0.288
TUFT1 (tuftelin 1) | SID364001491 | -0.217 | 3.66 | 0.04 | -0.51 | -0.07
MTARC1 (mitochondrial amidoxime reducing component 1) | SID364002521 | -0.539 | 6.06 | 0.37 | 0.323 | -0.38
